Publication PMC5027613, “A second DNA binding site in human BRCA2 promotes homologous recombination”

Experiments:
Experiment in all cases: EMSA
[1] = molecular target: BRCA2 full length (human) (UniProt P51587); conditions: lesser extent than ssDNA, ~100 times lower concentration needed than BRCA2T2; EMSA: 25 mM Tris acetate pH 7.5, 1 mM DTT, 1 mM MgCl2, 2 mM CaCl2, 0.2 uM nucleotides DNA, 1 h at 37 C; 6% native PAGE in 1x TAE; recombinant protein; residues 1-3418; protein details: N-terminal EGFP-MBP; label: 5'-32P on oAC405
[2] = molecular target: T1, BRCA2T2 C279A/C315S (human) (UniProt P51587); conditions: EMSA: 25 mM Tris acetate pH 7.5, 1 mM DTT, 1 mM MgCl2, 2 mM CaCl2, 0.2 uM nucleotides DNA, 1 h at 37 C, 6% native PAGE in 1x TAE, recombinant protein, residues 251-500, protein details: N-terminal 2xMBP, 2 NLS
T1 sequence (looked up): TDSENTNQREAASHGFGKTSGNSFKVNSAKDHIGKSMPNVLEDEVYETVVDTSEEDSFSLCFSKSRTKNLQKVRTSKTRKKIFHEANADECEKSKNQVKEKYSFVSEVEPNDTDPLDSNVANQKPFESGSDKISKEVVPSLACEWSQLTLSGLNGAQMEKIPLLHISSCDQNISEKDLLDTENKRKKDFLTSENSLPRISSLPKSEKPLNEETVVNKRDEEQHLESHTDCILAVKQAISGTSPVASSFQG

BRCA2T2 C279A (human) = molecular target: T2, BRCA2T2 C279A (human) (UniProt P51587); conditions: EMSA: 25 mM Tris acetate pH 7.5, 1 mM DTT, 1 mM MgCl2, 2 mM CaCl2, 0.2 uM nucleotides DNA, 1 h at 37 C, 6% native PAGE in 1x TAE, recombinant protein, residues 251-500, protein details: N-terminal 2xMBP, 2 NLS
T2 sequence (looked up): T1 sequence (looked up) with S65C

BRCA2T2 C341S (human) = molecular target: T3, BRCA2T2 C341S (human) (UniProt P51587); conditions: EMSA: 25 mM Tris acetate pH 7.5, 1 mM DTT, 1 mM MgCl2, 2 mM CaCl2, 0.2 uM nucleotides DNA, 1 h at 37 C, 6% native PAGE in 1x TAE, recombinant protein, residues 251-500, protein details: N-terminal 2xMBP, 2 NLS
T3 sequence (looked up): T1 sequence (looked up) with A29C, S65C, C91S

BRCA2T2 C315S (human) = molecular target: T4, BRCA2T2 C315S (human) (UniProt P51587); conditions: not significantly different from BRCA2T2, substrate dT40 per review file; EMSA: 25 mM Tris acetate pH 7.5, 1 mM DTT, 1 mM MgCl2, 2 mM CaCl2, 0.2 uM nucleotides DNA, 1 h at 37 C; 6% native PAGE in 1x TAE; recombinant protein; residues 251-500; protein details: N-terminal 2xMBP, 2 NLS; label: 5'-32P; single-stranded DNA
T4 sequence (looked up): T1 sequence (looked up) with A29C

[3] = not or very mildly affected, label: 5'-32P on oAC405
[4] = not significantly different from BRCA2T2, substrate dT40 per review file, label: 5'-32P, single-stranded DNA

Sequence | binding result [1] | binding result ([2]; C315S effect potentiated in double mutants, label: 5'-32P on oAC405) | binding result (BRCA2T2 C279A (human); [3]) | binding result (BRCA2T2 C341S (human); [3]) | binding result [2, 4] | binding result (BRCA2T2 C279A (human); [4]) | binding result (BRCA2T2 C315S (human)) | binding result (BRCA2T2 C341S (human); [4])
TAATACAAAATAAGTAAATGAATAAACAGAGAAAATAAAG (double strand) [40 bp dsDNA (oAC405/oAC406)] | binds more weakly | binds more weakly | binds | binds |  |  |  | 
TTTTTTTTTTTTTTTTTTTTTTTTTTTTTTTTTTTTTTTT [dT40 (oAC379)] |  |  |  |  | binds | binds | binds | binds

Positions count from the first letter of the chain named. For some assays here: The comparison behind a weaker result is the experiment's own reference, which may not be listed here. For some assays here: For at least one entry, the source does not settle the construct or the ends of the probe. For some assays here: At least one verdict rests on a figure or table, not on a statement of the authors. For some assays here: Tags and fusion partners may be left off the protein sequences shown.
